From publication doi:10.1101/517789
Like-named read-outs stand apart in the source and are kept apart here. Results are given in words; binding and its absence hold for the method and conditions named. In cells and extracts the contact can be indirect. Binding calls can cover weak binding; strength is not graded here. For some assays here: Where a sequence is shown, tags or fusion partners need not be part of it. Each block holds one molecule with its values, some of them ahead of it.

How the values were obtained:
[1] = biological target: T1, plakoglobin (mouse (endogenous in skeletal muscle, heart, liver)) (UniProt Q02257); experiment: co-IP
T1 sequence: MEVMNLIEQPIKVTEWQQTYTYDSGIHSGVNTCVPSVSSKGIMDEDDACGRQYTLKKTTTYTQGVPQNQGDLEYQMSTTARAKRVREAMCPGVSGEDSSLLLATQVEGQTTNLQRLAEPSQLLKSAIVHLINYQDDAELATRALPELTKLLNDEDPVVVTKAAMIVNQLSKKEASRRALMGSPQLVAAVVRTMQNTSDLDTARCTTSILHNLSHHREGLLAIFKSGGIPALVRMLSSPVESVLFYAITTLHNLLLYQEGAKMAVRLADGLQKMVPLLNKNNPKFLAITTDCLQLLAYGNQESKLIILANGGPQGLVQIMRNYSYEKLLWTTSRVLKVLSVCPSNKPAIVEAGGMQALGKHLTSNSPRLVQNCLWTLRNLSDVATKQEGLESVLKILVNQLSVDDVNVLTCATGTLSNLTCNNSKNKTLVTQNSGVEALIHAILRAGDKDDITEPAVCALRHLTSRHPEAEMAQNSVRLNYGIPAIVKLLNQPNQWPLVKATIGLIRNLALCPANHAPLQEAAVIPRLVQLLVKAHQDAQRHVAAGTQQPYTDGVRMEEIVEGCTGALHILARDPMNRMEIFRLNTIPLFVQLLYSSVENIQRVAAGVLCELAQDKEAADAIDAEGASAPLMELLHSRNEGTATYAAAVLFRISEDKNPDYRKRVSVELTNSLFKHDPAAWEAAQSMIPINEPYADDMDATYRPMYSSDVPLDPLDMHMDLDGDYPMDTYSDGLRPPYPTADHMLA

6His-tagged plakoglobin [2] = biological target: T2, 6His-tagged plakoglobin (UniProt P14923); experiment: pull-down
T2 sequence: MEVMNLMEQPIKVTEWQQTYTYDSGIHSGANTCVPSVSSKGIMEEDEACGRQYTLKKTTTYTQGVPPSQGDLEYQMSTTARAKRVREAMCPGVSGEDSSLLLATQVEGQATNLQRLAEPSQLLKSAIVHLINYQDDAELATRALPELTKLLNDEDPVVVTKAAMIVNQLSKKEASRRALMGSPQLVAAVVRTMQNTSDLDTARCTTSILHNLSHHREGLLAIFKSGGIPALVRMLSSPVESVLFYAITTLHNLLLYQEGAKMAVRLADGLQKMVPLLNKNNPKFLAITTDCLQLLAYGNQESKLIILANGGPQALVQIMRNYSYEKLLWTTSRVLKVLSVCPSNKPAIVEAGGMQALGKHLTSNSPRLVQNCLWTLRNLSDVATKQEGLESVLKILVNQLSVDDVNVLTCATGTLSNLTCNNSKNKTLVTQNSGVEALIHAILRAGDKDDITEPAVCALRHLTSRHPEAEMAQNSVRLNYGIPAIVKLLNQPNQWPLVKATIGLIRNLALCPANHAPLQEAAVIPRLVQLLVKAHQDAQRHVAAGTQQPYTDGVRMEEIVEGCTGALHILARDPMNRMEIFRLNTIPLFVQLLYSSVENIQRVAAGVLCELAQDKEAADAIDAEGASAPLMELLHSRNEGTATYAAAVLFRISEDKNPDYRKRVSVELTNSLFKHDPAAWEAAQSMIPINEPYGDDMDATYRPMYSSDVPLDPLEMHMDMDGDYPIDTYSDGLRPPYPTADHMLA

6His-V5-plakoglobin (FL) = biological target: T3, 6His-V5-plakoglobin (FL) (UniProt P14923); experiment: pull-down
T3 sequence: T2 sequence

6His-tagged plakoglobin [3] = biological target: T2, 6His-tagged plakoglobin; experiment: co-IP
[4] = biological target: T1, plakoglobin (mouse (endogenous in skeletal muscle, heart, liver)); experiment: co-IP; remark: listed apart in the source
[5] = biological target: T1, plakoglobin (mouse (endogenous in skeletal muscle, heart, liver)); experiment: co-IP; remark: listed apart in the source
[6] = biological target: T1, plakoglobin (mouse (endogenous in skeletal muscle, heart, liver)); experiment: co-IP; remark: listed apart in the source
6His-V5-plakoglobin ΔC = experiment: pull-down
6His-V5-plakoglobin ΔN = experiment: pull-down

- binding [1]: binds
- binding (6His-tagged plakoglobin [2]): binds
- binding (6His-V5-plakoglobin (FL)): binds
- binding (6His-tagged plakoglobin [3]): binds
- binding [4]: binds
- binding [5]: binds
- binding [6]: binds
Molecule: insulin receptor

- binding (6His-tagged plakoglobin [3]): binds
- binding [6]: binds
Molecule: p85 regulatory subunit of PI3K (mouse (endogenous in skeletal muscle))

- binding (6His-V5-plakoglobin ΔC): binds
- binding (6His-V5-plakoglobin ΔN): binds
B1: β-dystroglycan (protein, UniProt Q62165 652-893)
chain: SIVVEWTNNTLPLEPCPKEQIIGLSRRIADENGKPRPAFSNALEPDFKALSIAVTGSGSCRHLQFIPVAPPSPGSSAAPATEVPDRDPEKSSEDDVYLHTVIPAVVVAAILLIAGIIAMICYRKKRKGKLTLEDQATFIKKGVPIIFADELDDSKPPPSSSMPLILQEEKAPLPPPEYPNQSMPETTPLNQDTVGEYTPLRDEDPNAPPYQPPPPFTAPMEGKGSRPKNMTPYRSPPPYVPP
modifications: glycosylated form in the plakoglobin-containing fractions (sites not given)
